Experimental data: PubChem BioAssay AID1259331 (Drosophila RNAi Screening Center, 2017)

- Assay: 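Knock-downs that alter ATP level after a high zinc chloride dose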 (primary screen)
- Cells: Drosophila S2R+ cells
- Knock-down reagent: long dsRNA against Drosophila genes
- Time to read-out: 5 days (4 days knock-down, then 1 day zinc)
- Treatment: zinc chloride at 15 mM final level for 1 day
- Read-out: 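Luminescent ATP assay standing in for viability; Z score is the mean over three replicate plates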
- Direction: mean Z score: higher = more ATP than other wells, better survival under zinc; ATP luminescence: higher = more ATP, more viable cells
- Active means: 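Hit when the absolute Z score is greater than 1.5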
- Calls: active = hit, ATP up or down; inactive = not a hit
In all, the deposit lists about 3,100 reagents; this is a random part of them. Over the whole deposit, 126 (4.1%) got an active call. 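Calls are per reagent; zinc was so toxic that few knock-downs lowered ATP further, so most hits raise ATP.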 The raw values are shown without normalisation. A plus sign joins genes that one reagent is predicted to hit. The record does not give: the amount of reagent.

| predicted target | dsRNA | mean Z score | ATP luminescence, replicate 1 | ATP luminescence, replicate 2 | outcome |
| --- | --- | --- | --- | --- | --- |
| Gr36a (Gustatory receptor 36a) | DRSC22663 | -0.426 | 49040 | 36422 | inactive |
| Gr36a (Gustatory receptor 36a) | DRSC27724 | -0.258 | 51972 | 54403 | inactive |
| Gr9a (Gustatory receptor 9a) | DRSC22506 | 0.259 | 56482 | 64010 | inactive |
| Gr9a (Gustatory receptor 9a) | DRSC39581 | -0.115 | 61227 | 57185 | inactive |
| CG17821 | DRSC06696 | 0.754 | 68953 | 91420 | inactive |
| CG17821 | DRSC39871 | 0.0938 | 65056 | 61834 | inactive |
| ETHR | DRSC15915 | 0.0229 | 35822 | 60933 | inactive |
| ETHR | DRSC29606 | 0.416 | 68332 | 67269 | inactive |
| Tsp42Eo (Tetraspanin 42Eo) | DRSC06184 | 2.76 | 1.14e5 | 1.16e5 | active |
| ZnT35C (Zinc transporter 35C) | DRSC01959 | -0.178 | 45028 | 44998 | inactive |
| ZnT35C (Zinc transporter 35C) | DRSC39419 | 0.324 | 54645 | 52247 | inactive |
| Ir75a (Ionotropic receptor 75a) | DRSC10188 | -0.122 | 75913 | 58525 | inactive |
| Ir75a (Ionotropic receptor 75a) | DRSC39494 | 1.57 | 74626 | 72088 | active |
| mthl9 (methuselah-like 9) | DRSC08506 | -0.0562 | 69498 | 69618 | inactive |
| mthl9 (methuselah-like 9) | DRSC39784 | -0.425 | 48410 | 52144 | inactive |
| rdo (reduced ocelli) | DRSC02452 | -0.129 | 51235 | 57768 | inactive |
| rdo (reduced ocelli) | DRSC25572 | -0.438 | 42902 | 53996 | inactive |
| Scamp | DRSC20286 | 0.399 | 71831 | 73529 | inactive |
| Scamp | DRSC29752 | -1.38 | 42234 | 38102 | inactive |
| Sln (Silnoon) | DRSC07133 | 0.735 | 99517 | 81213 | inactive |
| Sln (Silnoon) | DRSC24171 | -0.992 | 44977 | 41205 | inactive |
| CG15880 | DRSC00474 | -0.562 | 37330 | 40963 | inactive |
| CG15880 | DRSC39795 | -0.513 | 49280 | 48653 | inactive |
| Nha1 (Na[+]/H[+] hydrogen antiporter 1) | DRSC02109 | 0.478 | 63256 | 62665 | inactive |
| Nha1 (Na[+]/H[+] hydrogen antiporter 1) | DRSC39661 | -0.158 | 57854 | 55865 | inactive |
| CG5535 | DRSC10514 | -0.0512 | 30816 | 32564 | inactive |
| CG5535 | DRSC29215 | 0.395 | 69258 | 65679 | inactive |
| Sr-CI (Scavenger receptor class C, type I) | DRSC00790 | 0.739 | 64519 | 44720 | inactive |
| Sr-CI (Scavenger receptor class C, type I) | DRSC23942 | 0.509 | 61095 | 66823 | inactive |
| CG32280 | DRSC08024 | -0.793 | 30233 | 34810 | inactive |
| CG32280 | DRSC39889 | -0.279 | 52452 | 58144 | inactive |
| heix (heixuedian) | DRSC03542 | 0.254 | 59586 | 60032 | inactive |
| heix (heixuedian) | DRSC39734 | -0.344 | 57185 | 51476 | inactive |
| mri (mrityu) | DRSC08259 | -0.468 | 27919 | 27889 | inactive |
| mri (mrityu) | DRSC27787 | -0.0406 | 62381 | 49366 | inactive |
| prt (portabella) | DRSC16894 | 0.281 | 40790 | 61318 | inactive |
| prt (portabella) | DRSC39457 | 0.731 | 59157 | 63753 | inactive |
| CG3649 | DRSC04400 | 0.0028 | 49520 | 38873 | inactive |
| CG3649 | DRSC28728 | 2.28 | 98625 | 94492 | active |
| sesB (stress-sensitive B) | DRSC20371 | -0.488 | 59374 | 56516 | inactive |
| sesB (stress-sensitive B) | DRSC29874 | -0.559 | 40571 | 43228 | inactive |
| CG16781 | DRSC18117 | -0.514 | 56791 | 58265 | inactive |
| CG16781 | DRSC28112 | -0.385 | 53773 | 51407 | inactive |
| PGRP-SC1a + PGRP-SC1b | DRSC25294 | -0.056 | 51458 | 51510 | inactive |
| ClC-c (Chloride channel-c) | DRSC10499 | -0.749 | 21097 | 28365 | inactive |
| ClC-c (Chloride channel-c) | DRSC39779 | -0.256 | 50835 | 54493 | inactive |
| Or98b (Odorant receptor 98b) | DRSC21751 | 0.0737 | 47354 | 47737 | inactive |

No new results follow: 14 of the entries above.
| predicted target | dsRNA | mean Z score | ATP luminescence, replicate 1 | ATP luminescence, replicate 2 | outcome |
| --- | --- | --- | --- | --- | --- |
| CG17821 | DRSC39871 | 0.0938 | 65056 | 61834 | inactive |
| ETHR | DRSC15915 | 0.0229 | 35822 | 60933 | inactive |
| ETHR | DRSC29606 | 0.416 | 68332 | 67269 | inactive |
| Tsp42Eo (Tetraspanin 42Eo) | DRSC06184 | 2.76 | 1.14e5 | 1.16e5 | active |
| ZnT35C (Zinc transporter 35C) | DRSC01959 | -0.178 | 45028 | 44998 | inactive |
| ZnT35C (Zinc transporter 35C) | DRSC39419 | 0.324 | 54645 | 52247 | inactive |
| Ir75a (Ionotropic receptor 75a) | DRSC10188 | -0.122 | 75913 | 58525 | inactive |
| Ir75a (Ionotropic receptor 75a) | DRSC39494 | 1.57 | 74626 | 72088 | active |
| mthl9 (methuselah-like 9) | DRSC08506 | -0.0562 | 69498 | 69618 | inactive |
| mthl9 (methuselah-like 9) | DRSC39784 | -0.425 | 48410 | 52144 | inactive |
| rdo (reduced ocelli) | DRSC02452 | -0.129 | 51235 | 57768 | inactive |
| rdo (reduced ocelli) | DRSC25572 | -0.438 | 42902 | 53996 | inactive |
| Scamp | DRSC20286 | 0.399 | 71831 | 73529 | inactive |
| Scamp | DRSC29752 | -1.38 | 42234 | 38102 | inactive |

The results go on.
| predicted target | dsRNA | mean Z score | ATP luminescence, replicate 1 | ATP luminescence, replicate 2 | outcome |
| --- | --- | --- | --- | --- | --- |
| Flo2 (Flotillin 2) | DRSC19062 | -0.526 | 91008 | 63221 | inactive |
| Flo2 (Flotillin 2) | DRSC20244 | 0.378 | 71796 | 72851 | inactive |
| Nrk (Neurospecific receptor kinase) | DRSC07480 | -0.177 | 78554 | 70045 | inactive |
| Nrk (Neurospecific receptor kinase) | DRSC36725 | -0.0466 | 50610 | 41411 | inactive |
| Nrk (Neurospecific receptor kinase) | DRSC36726 | -0.00644 | 49332 | 44548 | inactive |
| Oatp33Eb (Organic anion transporting polypeptide 33Eb) | DRSC02955 | -0.55 | 44394 | 41668 | inactive |
| Oatp33Eb (Organic anion transporting polypeptide 33Eb) | DRSC39667 | -0.412 | 51304 | 54004 | inactive |
| sand (sandman) | DRSC07245 | -0.104 | 71848 | 69824 | inactive |
| sand (sandman) | DRSC39678 | -0.347 | 54150 | 59654 | inactive |
| CG2930 | DRSC17730 | -0.599 | 35958 | 39576 | inactive |
| CG2930 | DRSC26303 | -0.516 | 44154 | 45731 | inactive |
| CG7384 | DRSC03053 | -0.218 | 52401 | 53944 | inactive |
| Gr98a (Gustatory receptor 98a) | DRSC14719 | -0.862 | 43879 | 39249 | inactive |
| colt (congested-like trachea) | DRSC00808 | -0.552 | 48732 | 48097 | inactive |
| colt (congested-like trachea) | DRSC29025 | -0.0156 | 62878 | 59397 | inactive |
| Cln7 | DRSC11005 | -0.466 | 28125 | 27130 | inactive |
| CG13654 | DRSC14654 | 0.8 | 35145 | 65074 | inactive |
| CG13654 | DRSC39888 | -0.508 | 49469 | 54887 | inactive |
| Rh6 (Rhodopsin 6) | DRSC16823 | 0.674 | 41794 | 66548 | inactive |
| Rh6 (Rhodopsin 6) | DRSC26166 | 0.669 | 72500 | 65983 | inactive |
| CG8086 | DRSC03078 | 2.13 | 85570 | 87080 | active |
| CG8086 | DRSC03079 | 0.193 | 48653 | 37810 | inactive |
| CG8086 | DRSC27677 | -0.0267 | 59329 | 51441 | inactive |
| CG14219 | DRSC19576 | -0.286 | 38668 | 40022 | inactive |
| CG14219 | DRSC26450 | 0.355 | 64919 | 63753 | inactive |
| CG6659 | DRSC20003 | -0.453 | 38452 | 42361 | inactive |
| CG6659 | DRSC39777 | -0.0175 | 55899 | 56048 | inactive |
| fusl (fuseless) | DRSC02351 | -0.512 | 46880 | 51233 | inactive |
| fusl (fuseless) | DRSC28283 | 0.883 | 70733 | 79360 | inactive |
| hbs (hibris) | DRSC07627 | -0.241 | 65725 | 67149 | inactive |
| hbs (hibris) | DRSC39446 | 0.273 | 59123 | 55676 | inactive |
| PXo (P[[i]]-sensitive XPR1 orthologue) | DRSC09734 | -0.306 | 28210 | 30782 | inactive |
| CG6282 | DRSC29524 | 0.00398 | 63306 | 59569 | inactive |
| Slc25A46a | DRSC20125 | 0.137 | 46606 | 48629 | inactive |
| Slc25A46a | DRSC39802 | 0.123 | 53841 | 62319 | inactive |
| Oatp58Da (Organic anion transporting polypeptide 58Da) | DRSC04365 | -0.465 | 44964 | 38685 | inactive |
| Oatp58Da (Organic anion transporting polypeptide 58Da) | DRSC25499 | 0.172 | 57511 | 59346 | inactive |
| Ac3 (Adenylate cyclase 3) | DRSC03692 | -0.594 | 26411 | 27885 | inactive |
| Ac3 (Adenylate cyclase 3) | DRSC39826 | -0.236 | 53329 | 52428 | inactive |
| ppk14 (pickpocket 14) | DRSC03238 | 0.716 | 49023 | 44205 | inactive |
| ppk14 (pickpocket 14) | DRSC39786 | -0.118 | 53738 | 55419 | inactive |
